Assay results from article PMC10359491.
A negative result means that nothing was seen under these conditions. At least one verdict was read from the data and is not stated in words by the source. For some assays here: Where a protein sequence is shown, tags need not be part of it. For some assays here: The exact form of at least one protein or probe is not confirmed.

Sequences of proteins named here, by UniProt entry; tags and fusion partners are left off. A change or cut given only in a name is not applied to a line headed by its entry. Residues count along the entry.
UniProt P02789, 20-705: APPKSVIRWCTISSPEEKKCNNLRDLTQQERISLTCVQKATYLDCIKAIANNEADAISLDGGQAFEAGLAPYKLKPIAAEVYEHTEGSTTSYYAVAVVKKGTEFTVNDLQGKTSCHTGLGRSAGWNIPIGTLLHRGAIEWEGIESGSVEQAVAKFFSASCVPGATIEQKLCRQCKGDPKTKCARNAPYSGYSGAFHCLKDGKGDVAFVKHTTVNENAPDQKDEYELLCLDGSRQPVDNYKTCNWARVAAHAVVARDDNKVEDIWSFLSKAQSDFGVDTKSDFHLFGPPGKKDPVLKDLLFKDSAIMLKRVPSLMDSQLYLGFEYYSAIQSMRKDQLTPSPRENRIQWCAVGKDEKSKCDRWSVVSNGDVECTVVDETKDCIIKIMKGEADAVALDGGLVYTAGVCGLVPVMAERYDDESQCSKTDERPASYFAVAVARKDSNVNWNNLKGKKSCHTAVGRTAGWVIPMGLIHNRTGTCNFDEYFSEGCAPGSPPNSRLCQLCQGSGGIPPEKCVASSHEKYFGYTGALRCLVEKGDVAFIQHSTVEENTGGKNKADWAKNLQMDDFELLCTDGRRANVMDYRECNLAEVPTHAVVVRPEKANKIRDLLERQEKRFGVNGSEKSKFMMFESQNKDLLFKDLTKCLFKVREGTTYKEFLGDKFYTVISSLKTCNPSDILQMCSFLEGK
UniProt P00772, 27-266: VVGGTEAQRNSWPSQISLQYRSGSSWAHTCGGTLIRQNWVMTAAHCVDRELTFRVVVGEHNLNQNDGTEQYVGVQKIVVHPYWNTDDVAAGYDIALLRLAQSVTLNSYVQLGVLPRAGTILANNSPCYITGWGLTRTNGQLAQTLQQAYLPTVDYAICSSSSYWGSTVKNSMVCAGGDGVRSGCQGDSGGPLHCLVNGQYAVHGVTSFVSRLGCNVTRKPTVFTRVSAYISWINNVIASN
UniProt P00780, 106-379: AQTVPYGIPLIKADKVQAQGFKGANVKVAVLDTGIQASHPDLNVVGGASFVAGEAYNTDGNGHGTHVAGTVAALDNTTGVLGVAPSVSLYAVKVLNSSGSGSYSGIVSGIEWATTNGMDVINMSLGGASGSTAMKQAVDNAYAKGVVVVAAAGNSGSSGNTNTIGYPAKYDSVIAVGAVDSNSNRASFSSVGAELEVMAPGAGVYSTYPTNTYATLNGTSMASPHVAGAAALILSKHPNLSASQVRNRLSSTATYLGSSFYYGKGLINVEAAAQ
UniProt P00760: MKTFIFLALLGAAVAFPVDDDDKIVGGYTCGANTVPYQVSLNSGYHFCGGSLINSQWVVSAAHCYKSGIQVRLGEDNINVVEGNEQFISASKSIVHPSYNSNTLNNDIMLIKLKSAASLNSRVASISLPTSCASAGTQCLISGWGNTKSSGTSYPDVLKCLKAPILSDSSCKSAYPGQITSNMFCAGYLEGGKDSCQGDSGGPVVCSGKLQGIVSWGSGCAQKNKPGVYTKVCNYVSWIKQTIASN

Legend:
Test in all cases: ELISA
Conditions in all cases: protein immobilized; ELISA: PBS pH 7.4, 5 mM MgCl2, 10 mM KCl, 0.01% Tween 20, 20 min (temperature not stated); commercial protein; label: biotin (ELISA); single-stranded DNA
carbonic anhydrase = tested on: carbonic anhydrase
conalbumin = conalbumin (UniProt P02789)
ferritin = tested on: ferritin
ovalbumin = target: T1, ovalbumin (UniProt P01012)
T1 sequence (looked up, limits assumed): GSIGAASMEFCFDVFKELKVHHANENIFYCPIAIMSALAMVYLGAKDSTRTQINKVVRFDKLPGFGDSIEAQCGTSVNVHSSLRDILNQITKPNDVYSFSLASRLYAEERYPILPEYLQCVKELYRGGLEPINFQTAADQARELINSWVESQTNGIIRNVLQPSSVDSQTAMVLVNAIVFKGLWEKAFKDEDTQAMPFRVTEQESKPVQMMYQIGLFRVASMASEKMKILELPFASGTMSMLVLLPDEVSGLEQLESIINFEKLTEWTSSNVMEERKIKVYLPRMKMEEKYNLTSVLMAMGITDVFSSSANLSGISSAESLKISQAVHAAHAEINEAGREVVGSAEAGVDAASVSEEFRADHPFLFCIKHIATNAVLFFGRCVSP

[1] = target: pancreatic elastase (Sus scrofa) (UniProt P00772)
ribonuclease A = target: T2, ribonuclease A (UniProt P61823)
T2 sequence (looked up, limits assumed): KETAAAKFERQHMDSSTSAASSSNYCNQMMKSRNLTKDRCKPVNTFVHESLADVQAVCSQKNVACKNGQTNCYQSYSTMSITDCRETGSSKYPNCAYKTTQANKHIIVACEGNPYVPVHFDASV

subtilisin (Carlsberg) = subtilisin (Carlsberg) (UniProt P00780)
trypsin (Bos taurus) = trypsin (Bos taurus) (UniProt P00760)

Measured: binding result

CATGCTTCCCCAGGGAGATGAGGACGGGCGTGGGGATGGGTATGGTGCAACTCCCGAGGAACATGCGTCGCAAAC [aptamer E6]
no binding: all assays above
